One assay concerns the target Flag-tagged NLRP3 (UniProt Q96P20). Kind of assay: co-IP; HEK293 cells cotransfected with Flag-NLRP3 and a Myc-tagged IpaH protein; anti-Flag M2 affinity gel, 2 h at 4°C; washed with 50 mM Tris-HCl pH 7.5, 1 mM EDTA, 0.3 mM dithiothreitol, 150 mM NaCl, 0.1% NP40; blot with anti-Myc.
Assay [1] addresses Flag-tagged IpaH4.5 (Shigella flexneri 2a 301) (UniProt P18009). Briefly: co-IP; RAW264.7 cells transfected with Flag-IpaH4.5; anti-Flag M2 affinity gel, 2 h at 4°C; blot with anti-NLRP3 for the endogenous protein.
Assay [2] has as its target GST-tagged IpaH4.5 (Shigella flexneri 2a 301) (UniProt P18009). Kind of assay: pull-down; purified GST-IpaH4.5 on glutathione beads; lysate of HEK293 cells expressing Flag-NLRP3; three washes; blot with anti-Flag; only the target purified.

Sequences of proteins named here, by UniProt entry; tags and fusion partners are left off.
UniProt Q96P20: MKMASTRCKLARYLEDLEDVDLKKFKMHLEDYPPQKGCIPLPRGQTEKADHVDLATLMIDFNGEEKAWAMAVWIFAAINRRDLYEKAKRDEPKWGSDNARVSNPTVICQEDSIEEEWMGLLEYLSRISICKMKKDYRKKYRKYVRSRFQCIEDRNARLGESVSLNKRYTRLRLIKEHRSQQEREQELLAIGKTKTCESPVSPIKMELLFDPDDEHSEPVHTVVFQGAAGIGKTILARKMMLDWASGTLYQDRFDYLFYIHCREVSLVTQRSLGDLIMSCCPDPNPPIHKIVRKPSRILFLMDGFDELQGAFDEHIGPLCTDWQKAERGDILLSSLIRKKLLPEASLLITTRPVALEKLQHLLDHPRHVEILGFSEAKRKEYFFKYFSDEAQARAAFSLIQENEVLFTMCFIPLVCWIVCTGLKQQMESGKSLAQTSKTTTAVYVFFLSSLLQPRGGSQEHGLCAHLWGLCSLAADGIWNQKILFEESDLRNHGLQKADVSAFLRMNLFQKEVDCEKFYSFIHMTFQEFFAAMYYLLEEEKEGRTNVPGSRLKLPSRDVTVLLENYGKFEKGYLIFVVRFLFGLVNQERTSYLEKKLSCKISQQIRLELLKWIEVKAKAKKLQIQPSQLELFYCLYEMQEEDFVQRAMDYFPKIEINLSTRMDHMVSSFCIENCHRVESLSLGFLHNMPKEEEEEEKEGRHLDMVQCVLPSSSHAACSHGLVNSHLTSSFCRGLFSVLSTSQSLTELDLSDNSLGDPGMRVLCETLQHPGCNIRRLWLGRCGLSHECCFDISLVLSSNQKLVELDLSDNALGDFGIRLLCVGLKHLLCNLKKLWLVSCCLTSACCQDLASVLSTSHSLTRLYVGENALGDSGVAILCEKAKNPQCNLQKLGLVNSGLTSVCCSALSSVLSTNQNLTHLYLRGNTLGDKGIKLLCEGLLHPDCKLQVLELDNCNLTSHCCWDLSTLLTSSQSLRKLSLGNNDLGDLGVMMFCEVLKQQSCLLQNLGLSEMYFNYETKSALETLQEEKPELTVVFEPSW
UniProt P18009: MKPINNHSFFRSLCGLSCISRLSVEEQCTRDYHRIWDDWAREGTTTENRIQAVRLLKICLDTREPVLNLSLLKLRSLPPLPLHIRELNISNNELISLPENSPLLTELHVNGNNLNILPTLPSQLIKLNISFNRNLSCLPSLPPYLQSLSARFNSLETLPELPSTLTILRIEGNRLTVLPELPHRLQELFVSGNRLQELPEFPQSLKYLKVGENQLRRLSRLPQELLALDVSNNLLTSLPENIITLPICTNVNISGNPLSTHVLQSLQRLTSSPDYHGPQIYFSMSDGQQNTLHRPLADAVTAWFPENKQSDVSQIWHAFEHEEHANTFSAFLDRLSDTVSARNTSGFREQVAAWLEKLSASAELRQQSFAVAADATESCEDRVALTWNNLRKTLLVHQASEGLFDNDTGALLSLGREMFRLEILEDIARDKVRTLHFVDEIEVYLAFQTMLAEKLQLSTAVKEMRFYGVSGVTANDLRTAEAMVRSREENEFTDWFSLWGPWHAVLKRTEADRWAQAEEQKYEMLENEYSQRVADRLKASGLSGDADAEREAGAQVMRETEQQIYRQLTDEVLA
UniProt Q8R4B8: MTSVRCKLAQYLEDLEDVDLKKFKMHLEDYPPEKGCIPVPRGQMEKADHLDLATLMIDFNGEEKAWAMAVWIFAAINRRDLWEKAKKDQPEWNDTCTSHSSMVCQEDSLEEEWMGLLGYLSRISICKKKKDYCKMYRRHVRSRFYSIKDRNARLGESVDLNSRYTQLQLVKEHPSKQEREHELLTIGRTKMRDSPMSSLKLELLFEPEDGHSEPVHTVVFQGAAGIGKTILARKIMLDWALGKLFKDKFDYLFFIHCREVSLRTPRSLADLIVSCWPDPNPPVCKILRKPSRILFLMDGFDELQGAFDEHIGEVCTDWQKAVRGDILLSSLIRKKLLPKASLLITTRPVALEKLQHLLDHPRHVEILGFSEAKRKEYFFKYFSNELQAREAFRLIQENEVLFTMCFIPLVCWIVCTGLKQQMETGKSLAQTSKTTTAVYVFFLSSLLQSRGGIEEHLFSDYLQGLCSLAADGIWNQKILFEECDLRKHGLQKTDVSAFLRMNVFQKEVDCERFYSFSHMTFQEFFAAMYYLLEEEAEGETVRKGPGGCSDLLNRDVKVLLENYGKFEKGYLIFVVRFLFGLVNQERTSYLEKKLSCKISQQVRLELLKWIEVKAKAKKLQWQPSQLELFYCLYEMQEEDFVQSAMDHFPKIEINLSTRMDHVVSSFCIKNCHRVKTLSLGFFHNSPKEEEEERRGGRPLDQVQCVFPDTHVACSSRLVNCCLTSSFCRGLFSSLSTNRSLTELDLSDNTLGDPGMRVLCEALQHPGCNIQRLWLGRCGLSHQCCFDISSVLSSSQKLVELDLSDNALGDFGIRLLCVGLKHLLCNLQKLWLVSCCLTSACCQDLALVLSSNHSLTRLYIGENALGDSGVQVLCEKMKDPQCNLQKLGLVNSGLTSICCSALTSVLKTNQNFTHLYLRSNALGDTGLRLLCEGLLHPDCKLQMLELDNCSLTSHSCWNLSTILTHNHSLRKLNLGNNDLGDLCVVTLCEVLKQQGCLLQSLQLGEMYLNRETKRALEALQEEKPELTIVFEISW
UniProt Q8VSC3: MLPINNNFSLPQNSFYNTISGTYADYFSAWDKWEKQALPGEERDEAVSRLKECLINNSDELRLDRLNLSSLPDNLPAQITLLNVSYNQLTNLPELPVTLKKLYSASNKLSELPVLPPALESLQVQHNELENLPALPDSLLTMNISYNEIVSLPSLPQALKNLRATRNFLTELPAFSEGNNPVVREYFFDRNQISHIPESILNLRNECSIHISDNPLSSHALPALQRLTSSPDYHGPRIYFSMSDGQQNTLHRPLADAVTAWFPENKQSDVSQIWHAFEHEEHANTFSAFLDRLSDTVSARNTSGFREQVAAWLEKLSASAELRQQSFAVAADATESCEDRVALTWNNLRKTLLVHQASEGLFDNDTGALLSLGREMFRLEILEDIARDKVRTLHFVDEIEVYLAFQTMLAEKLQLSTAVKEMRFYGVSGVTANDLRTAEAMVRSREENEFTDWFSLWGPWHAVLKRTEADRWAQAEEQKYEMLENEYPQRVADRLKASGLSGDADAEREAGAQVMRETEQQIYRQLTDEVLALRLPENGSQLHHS

These are yes or no findings as the source states them, for the method shown. In cells and extracts the contact can be indirect. Some entries that bind do so weakly or less than the wild type.

Turning to “Myc-tagged IpaH4.5 (from UniProt P18009 1-574)”, the binding entry with Flag-tagged NLRP3 is on record as “binds”.
In the case of “endogenous NLRP3 (from UniProt Q8R4B8 1-1033)”, the binding result in assay [1] is listed as “binds”.
Regarding “Flag-tagged NLRP3 (from UniProt Q96P20 1-1036)”, the binding entry in assay [2] is “binds”.
Take “Myc-tagged IpaH9.8 (from UniProt Q8VSC3 1-545)”: the binding result with Flag-tagged NLRP3 is “no binding”.
